# Measured values reported in the supplement of paper PMC7666118.
# Sequences of proteins named here, by UniProt entry; tags and fusion partners are left off. A change or cut given only in a name is not applied to a line headed by its entry.
# UniProt P46459: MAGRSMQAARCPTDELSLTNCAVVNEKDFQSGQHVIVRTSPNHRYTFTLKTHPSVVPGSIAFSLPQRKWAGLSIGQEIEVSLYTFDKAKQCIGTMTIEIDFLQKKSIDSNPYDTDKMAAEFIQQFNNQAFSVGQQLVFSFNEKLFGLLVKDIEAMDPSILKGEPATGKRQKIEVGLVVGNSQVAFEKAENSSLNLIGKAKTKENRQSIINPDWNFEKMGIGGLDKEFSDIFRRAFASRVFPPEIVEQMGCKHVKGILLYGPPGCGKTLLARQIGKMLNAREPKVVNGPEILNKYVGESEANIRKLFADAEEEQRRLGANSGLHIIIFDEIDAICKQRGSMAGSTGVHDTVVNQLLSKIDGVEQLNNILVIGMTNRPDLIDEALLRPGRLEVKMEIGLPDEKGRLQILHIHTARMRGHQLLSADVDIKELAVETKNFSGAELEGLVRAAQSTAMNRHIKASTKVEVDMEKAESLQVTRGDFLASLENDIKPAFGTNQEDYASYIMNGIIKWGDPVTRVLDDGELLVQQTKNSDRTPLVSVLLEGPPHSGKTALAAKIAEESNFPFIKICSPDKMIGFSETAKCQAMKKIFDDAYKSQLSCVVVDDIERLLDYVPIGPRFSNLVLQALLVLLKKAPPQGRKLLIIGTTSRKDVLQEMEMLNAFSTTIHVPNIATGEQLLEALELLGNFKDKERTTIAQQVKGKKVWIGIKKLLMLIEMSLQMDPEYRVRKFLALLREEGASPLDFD
# UniProt Q8IXM6: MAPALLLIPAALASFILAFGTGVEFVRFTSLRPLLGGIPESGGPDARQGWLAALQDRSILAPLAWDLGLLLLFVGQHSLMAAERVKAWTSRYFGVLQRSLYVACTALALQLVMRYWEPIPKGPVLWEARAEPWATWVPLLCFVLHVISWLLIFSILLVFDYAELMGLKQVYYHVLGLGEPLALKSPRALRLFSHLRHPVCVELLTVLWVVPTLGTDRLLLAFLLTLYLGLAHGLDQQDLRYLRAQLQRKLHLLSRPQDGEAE
# UniProt Q9UHY1: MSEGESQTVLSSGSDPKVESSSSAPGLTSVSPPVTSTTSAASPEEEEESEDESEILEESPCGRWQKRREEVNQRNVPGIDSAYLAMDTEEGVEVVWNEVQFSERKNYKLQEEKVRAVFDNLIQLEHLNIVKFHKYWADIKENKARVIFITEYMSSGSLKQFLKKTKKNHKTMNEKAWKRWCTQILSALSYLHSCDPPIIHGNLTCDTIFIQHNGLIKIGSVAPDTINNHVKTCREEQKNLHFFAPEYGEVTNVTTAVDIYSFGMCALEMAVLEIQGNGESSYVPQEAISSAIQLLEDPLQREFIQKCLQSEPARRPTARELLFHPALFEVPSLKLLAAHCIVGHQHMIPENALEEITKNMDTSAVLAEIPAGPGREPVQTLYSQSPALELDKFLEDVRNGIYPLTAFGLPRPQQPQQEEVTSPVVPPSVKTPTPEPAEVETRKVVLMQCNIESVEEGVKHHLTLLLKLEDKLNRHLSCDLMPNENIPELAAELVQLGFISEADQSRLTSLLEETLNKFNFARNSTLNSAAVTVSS
# UniProt P49757: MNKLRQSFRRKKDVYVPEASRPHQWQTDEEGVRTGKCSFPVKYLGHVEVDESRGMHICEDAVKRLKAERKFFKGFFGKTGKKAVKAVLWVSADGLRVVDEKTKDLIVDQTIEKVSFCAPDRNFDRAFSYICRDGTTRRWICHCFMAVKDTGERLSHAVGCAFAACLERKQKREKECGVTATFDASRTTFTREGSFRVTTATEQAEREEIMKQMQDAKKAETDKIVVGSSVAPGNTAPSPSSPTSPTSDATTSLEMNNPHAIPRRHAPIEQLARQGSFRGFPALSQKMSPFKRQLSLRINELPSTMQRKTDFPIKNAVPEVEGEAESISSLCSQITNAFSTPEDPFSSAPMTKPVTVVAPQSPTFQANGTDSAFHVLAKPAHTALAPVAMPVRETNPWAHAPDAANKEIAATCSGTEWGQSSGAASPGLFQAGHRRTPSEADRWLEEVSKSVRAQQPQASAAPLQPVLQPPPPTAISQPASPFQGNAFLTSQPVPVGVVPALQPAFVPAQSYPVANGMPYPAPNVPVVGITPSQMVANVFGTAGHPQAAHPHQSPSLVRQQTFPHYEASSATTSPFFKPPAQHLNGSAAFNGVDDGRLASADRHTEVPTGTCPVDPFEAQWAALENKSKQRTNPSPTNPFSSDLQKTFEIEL
# UniProt O43920, whole entry: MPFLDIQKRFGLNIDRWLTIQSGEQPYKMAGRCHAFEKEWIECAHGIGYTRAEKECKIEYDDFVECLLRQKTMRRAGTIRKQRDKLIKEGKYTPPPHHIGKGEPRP
# UniProt Q8N5F7: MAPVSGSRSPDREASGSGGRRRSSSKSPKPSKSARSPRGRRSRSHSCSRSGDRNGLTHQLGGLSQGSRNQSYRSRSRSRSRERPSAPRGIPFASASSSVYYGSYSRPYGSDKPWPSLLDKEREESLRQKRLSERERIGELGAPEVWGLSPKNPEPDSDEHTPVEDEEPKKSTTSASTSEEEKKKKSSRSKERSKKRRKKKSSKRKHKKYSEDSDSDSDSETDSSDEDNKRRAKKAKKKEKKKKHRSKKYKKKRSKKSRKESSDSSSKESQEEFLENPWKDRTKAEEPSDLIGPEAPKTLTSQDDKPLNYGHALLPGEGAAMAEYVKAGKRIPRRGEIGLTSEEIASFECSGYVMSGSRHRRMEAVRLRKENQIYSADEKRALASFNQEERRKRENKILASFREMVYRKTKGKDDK
# UniProt O43674, whole entry: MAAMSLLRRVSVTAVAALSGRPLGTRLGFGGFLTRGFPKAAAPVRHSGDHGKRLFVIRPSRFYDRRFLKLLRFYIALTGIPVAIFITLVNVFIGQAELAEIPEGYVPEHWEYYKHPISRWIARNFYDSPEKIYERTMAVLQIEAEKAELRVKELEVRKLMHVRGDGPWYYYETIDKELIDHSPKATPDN
# UniProt Q9UJ70, whole entry: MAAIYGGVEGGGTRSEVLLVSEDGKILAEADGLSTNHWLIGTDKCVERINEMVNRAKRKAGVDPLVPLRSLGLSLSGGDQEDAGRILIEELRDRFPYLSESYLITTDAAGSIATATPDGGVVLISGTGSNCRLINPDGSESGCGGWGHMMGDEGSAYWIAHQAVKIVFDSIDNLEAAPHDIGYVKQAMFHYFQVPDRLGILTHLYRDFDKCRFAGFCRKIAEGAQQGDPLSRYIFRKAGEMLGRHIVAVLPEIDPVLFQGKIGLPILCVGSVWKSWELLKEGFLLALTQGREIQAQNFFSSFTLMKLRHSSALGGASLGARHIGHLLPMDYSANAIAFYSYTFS
# UniProt P28331, whole entry: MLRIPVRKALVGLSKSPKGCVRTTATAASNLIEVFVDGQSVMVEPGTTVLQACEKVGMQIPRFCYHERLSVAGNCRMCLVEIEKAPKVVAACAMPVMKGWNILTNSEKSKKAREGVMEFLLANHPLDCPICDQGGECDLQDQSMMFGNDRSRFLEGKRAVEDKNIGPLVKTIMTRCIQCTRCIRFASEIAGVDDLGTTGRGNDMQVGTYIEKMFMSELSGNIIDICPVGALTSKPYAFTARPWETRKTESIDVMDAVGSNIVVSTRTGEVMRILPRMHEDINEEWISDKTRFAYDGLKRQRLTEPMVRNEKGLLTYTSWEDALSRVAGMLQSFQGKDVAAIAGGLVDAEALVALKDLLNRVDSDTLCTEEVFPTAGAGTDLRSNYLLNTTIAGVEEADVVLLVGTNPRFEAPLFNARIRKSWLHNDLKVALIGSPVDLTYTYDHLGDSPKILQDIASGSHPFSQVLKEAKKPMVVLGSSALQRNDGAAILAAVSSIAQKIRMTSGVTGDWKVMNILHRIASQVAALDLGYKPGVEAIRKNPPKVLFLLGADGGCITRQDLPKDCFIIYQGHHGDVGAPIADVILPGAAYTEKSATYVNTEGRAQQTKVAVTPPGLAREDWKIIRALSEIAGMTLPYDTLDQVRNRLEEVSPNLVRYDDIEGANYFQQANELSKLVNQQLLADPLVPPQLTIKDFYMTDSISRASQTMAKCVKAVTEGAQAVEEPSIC
# UniProt Q9Y5B8, whole entry: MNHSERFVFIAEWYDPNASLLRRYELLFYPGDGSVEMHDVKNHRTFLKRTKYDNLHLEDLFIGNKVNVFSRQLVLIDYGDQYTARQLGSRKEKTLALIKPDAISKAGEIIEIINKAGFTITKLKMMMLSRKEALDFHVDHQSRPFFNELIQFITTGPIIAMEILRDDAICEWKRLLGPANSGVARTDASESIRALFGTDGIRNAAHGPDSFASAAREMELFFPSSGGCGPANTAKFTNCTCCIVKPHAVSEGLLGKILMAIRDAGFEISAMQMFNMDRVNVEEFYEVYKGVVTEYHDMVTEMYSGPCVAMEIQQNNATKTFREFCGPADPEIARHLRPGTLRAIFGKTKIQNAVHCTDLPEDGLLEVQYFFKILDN
# UniProt Q9Y3C1: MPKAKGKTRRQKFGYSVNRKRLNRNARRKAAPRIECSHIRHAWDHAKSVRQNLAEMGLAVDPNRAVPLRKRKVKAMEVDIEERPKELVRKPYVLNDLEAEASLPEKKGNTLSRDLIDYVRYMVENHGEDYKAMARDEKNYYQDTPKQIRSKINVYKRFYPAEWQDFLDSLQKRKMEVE
# UniProt Q96HR8: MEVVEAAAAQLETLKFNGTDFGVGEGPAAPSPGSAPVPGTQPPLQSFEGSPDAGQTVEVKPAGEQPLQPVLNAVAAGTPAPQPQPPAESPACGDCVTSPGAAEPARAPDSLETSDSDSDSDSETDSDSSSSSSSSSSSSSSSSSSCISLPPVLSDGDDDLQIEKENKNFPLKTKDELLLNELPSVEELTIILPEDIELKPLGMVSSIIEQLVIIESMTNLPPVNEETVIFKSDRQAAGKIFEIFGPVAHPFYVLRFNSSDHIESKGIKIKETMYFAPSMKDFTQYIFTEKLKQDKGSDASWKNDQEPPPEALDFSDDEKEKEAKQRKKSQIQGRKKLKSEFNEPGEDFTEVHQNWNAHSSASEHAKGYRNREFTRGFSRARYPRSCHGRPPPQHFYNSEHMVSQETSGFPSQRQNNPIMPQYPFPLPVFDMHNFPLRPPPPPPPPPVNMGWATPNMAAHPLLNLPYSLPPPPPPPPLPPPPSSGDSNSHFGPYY
# UniProt Q9BZD4: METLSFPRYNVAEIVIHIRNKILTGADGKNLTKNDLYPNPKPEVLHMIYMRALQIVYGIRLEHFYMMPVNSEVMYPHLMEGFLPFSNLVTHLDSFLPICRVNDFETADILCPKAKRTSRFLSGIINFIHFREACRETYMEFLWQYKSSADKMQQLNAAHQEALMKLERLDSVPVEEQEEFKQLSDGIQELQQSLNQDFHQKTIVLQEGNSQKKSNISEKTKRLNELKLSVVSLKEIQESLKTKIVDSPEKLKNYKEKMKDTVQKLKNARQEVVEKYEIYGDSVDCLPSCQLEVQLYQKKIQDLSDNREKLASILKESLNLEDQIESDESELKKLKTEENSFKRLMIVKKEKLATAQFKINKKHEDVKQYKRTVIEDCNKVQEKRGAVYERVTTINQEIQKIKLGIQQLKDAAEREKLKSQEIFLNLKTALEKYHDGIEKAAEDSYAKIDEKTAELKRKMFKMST
# UniProt Q8TB37: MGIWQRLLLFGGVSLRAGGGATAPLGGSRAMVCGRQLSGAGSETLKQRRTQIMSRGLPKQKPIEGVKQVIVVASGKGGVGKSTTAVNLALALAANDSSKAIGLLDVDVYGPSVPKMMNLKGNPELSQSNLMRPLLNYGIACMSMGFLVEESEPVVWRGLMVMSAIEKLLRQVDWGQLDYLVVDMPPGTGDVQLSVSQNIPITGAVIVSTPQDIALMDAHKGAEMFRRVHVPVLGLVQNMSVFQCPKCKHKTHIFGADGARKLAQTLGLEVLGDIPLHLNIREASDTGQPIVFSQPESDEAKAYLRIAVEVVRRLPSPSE
# UniProt P78549: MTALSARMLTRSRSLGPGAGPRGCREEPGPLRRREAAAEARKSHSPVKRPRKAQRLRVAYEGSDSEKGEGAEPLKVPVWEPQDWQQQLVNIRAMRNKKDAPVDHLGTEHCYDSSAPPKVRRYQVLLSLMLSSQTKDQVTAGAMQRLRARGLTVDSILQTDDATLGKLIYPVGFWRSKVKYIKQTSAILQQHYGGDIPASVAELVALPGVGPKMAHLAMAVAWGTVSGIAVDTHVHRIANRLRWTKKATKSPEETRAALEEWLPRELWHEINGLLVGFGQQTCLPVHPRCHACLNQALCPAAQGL
# UniProt P00491: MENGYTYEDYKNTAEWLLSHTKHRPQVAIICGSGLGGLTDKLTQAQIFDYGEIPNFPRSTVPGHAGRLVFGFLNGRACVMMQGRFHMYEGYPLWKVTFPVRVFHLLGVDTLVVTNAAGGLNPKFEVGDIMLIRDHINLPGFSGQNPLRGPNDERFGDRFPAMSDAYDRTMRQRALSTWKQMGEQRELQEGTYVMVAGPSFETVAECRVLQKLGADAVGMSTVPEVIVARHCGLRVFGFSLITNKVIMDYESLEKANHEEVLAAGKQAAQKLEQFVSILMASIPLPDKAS
# This is one part of the list.
# Compound: COc1ccc(Cn2ccc3cc(C)c(C(=O)NO)cc32)cc1
# Experiment: dose-dependent thermal stabilisation call (2D-TPP, DLPTP, 10% FDR) (binary (1 = stabilised)); higher = stabilised by the compound
# Details: system: HL-60 intact cells; concentration range 0.04-10 µM
# Procedure: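 2D thermal proteome profiling in intact HL-60 cells treated with BRD-3811 (0, 0.04, 0.29, 2, 10 uM) for 90 min at 37 C, then heated 3 min at one of 12 temperatures (42-63.9 C). Soluble protein was quantified by TMT10 MS. The value is the DLPTP call of the paper: dose-dependent thermal stabilisation over all temperatures at 10% FDR (F-test of a dose-response against a flat model); one experiment, one call per tested protein.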
row,Target,dose-dependent thermal stabilisation call
1,NSF (UniProt P46459),inactive: 0
2,NRM (UniProt Q8IXM6),inactive: 0
3,NRAS (UniProt P01111),inactive: 0
4,OFD1 (UniProt O75665),inactive: 0
5,NOC2L (UniProt Q9Y3T9),inactive: 0
6,NCOA6 (UniProt Q14686),inactive: 0
7,NPEPPS (UniProt P55786),active: 1
8,NRBP1 (UniProt Q9UHY1),inactive: 0
9,NOP10 (UniProt Q9NPE3),inactive: 0
10,NUMB (UniProt P49757),inactive: 0
11,NDUFS5 (UniProt O43920),inactive: 0
12,NAT5,inactive: 0
13,NKAP (UniProt Q8N5F7),inactive: 0
14,NDUFB5 (UniProt O43674),inactive: 0
15,NAGK (UniProt Q9UJ70),inactive: 0
16,NDUFS1 (UniProt P28331),inactive: 0
17,NOL5A (UniProt O00567),inactive: 0
18,NAG (UniProt A2RRP1),inactive: 0

# An excerpt of these results, tab-delimited.
row	Target	dose-dependent thermal stabilisation call
16	NDUFS1 (UniProt P28331)	inactive: 0
17	NOL5A (UniProt O00567)	inactive: 0

# (further entries)

row,Target,dose-dependent thermal stabilisation call
1,NME7 (UniProt Q9Y5B8),inactive: 0
2,NHLRC3 (UniProt Q5JS37),inactive: 0
3,NUDT16L1 (UniProt Q9BRJ7),inactive: 0
4,NOP16 (UniProt Q9Y3C1),inactive: 0
5,NUDT16 (UniProt Q96DE0),inactive: 0
6,NCOR1 (UniProt O75376),inactive: 0
7,NUP85 (UniProt Q9BW27),inactive: 0
8,NUFIP1 (UniProt Q9UHK0),inactive: 0
9,NAF1 (UniProt Q96HR8),inactive: 0
10,NDE1 (UniProt Q9NXR1),inactive: 0
11,NONO (UniProt Q15233),inactive: 0
12,NSDHL (UniProt Q15738),active: 1
13,NUF2 (UniProt Q9BZD4),inactive: 0
14,NDUFC2 (UniProt O95298),inactive: 0
15,NEK9 (UniProt Q8TD19),inactive: 0
16,NUBPL (UniProt Q8TB37),inactive: 0
17,NTHL1 (UniProt P78549),inactive: 0
18,NP (UniProt P00491),inactive: 0
